Data as given in PubChem BioAssay AID1053208 (Peter MacCallum Cancer Centre, 2014)
Here is an unselected part of about 17,000 reagents. In the full data, 788 (4.7%) were called active. 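Calls rest on z-score classes alone; an extra cut-off of viability at most 70% of control was not applied to them.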 Not all columns of the deposit are shown.

Purpose: 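Genes whose silencing cuts survival of bone tumour cells only with doxorubicin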 (primary screen)
System: mouse osteosarcoma cells, early-passage culture from an engineered mouse model of fibroblastic bone tumour
Knock-down reagent: siRNA pool against mouse genes, 40 nM
Timing: about 120 h (48 h before drug, then 72 h with drug)
Treatment: doxorubicin 100 nM for 72 h, roughly 30-40% inhibitory dose
Read-out: 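Viability read as ATP luminescence after 72 h of 100 nM doxorubicin or none, duplicate wells averaged, scaled to non-targeting siRNA, then expressed as robust z-scores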
Scale: viability z-score with doxorubicin: higher = more viable cells under doxorubicin; viability z-score without drug: higher = more viable cells with knock-down alone
Active means: 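Called active if knock-down leaves viability unchanged without drug (z within -2 to 2) but lowers it with doxorubicin (z at or under -2)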

For Spesp1 (GeneID 66712), the entry reads combined z-score class no change with or without drug; viability z-score with doxorubicin 0.45; viability z-score without drug 1.85; inactive.
Against Flrt2 (GeneID 399558), the values are combined z-score class no change with or without drug; viability z-score with doxorubicin 0.11; viability z-score without drug 1.52; inactive.
Knock-down of Dsg3 (GeneID 13512) came out at: combined z-score class low cell count with doxorubicin only; viability z-score with doxorubicin -2.25; viability z-score without drug 0; active.
Against Timm10b (GeneID 14356) the deposit lists combined z-score class no change with or without drug; viability z-score with doxorubicin 0.11; viability z-score without drug 0.17; inactive.
F11 (GeneID 109821) gave combined z-score class no change with or without drug; viability z-score with doxorubicin -0.9; viability z-score without drug -0.51; inactive.
Knock-down of Cdk5rap3 (GeneID 80280) gave: combined z-score class no change with or without drug; viability z-score with doxorubicin 0.67; viability z-score without drug -0.84; inactive.
Depletion of Oxnad1 (GeneID 218885) resulted in: combined z-score class no change with or without drug; viability z-score with doxorubicin 0; viability z-score without drug -0.17; inactive.
Knock-down of Usp6nl (GeneID 98910) came out at: combined z-score class no change with or without drug; viability z-score with doxorubicin 0.11; viability z-score without drug -0.84; inactive.
Mrpl16 (GeneID 94063) showed combined z-score class no change with or without drug; viability z-score with doxorubicin 0.34; viability z-score without drug 0.34; inactive.
With knock-down of Gfi1b (GeneID 14582) the results were combined z-score class low cell count with doxorubicin only; viability z-score with doxorubicin -2.59; viability z-score without drug -1.18; active.
Hoxc9 (GeneID 15427) showed combined z-score class no change with or without drug; viability z-score with doxorubicin -1.12; viability z-score without drug -1.18; inactive.
Against Mstn (GeneID 17700), the entry reads combined z-score class no change with or without drug; viability z-score with doxorubicin 0.67; viability z-score without drug 0.51; inactive.
Rec8 (GeneID 56739) gave combined z-score class no change with or without drug; viability z-score with doxorubicin -0.67; viability z-score without drug -0.17; inactive.
With knock-down of Fen1 (GeneID 14156) the results were combined z-score class no change with or without drug; viability z-score with doxorubicin -0.45; viability z-score without drug 0.51; inactive.
For V1rg10 (GeneID 171266) the deposit lists combined z-score class no change with or without drug; viability z-score with doxorubicin 1.24; viability z-score without drug 1.18; inactive.
Against Tmem38b (GeneID 52076), the values are combined z-score class no change with or without drug; viability z-score with doxorubicin 1.12; viability z-score without drug -0.17; inactive.
For Cd40 (GeneID 21939), the entry reads combined z-score class no change with or without drug; viability z-score with doxorubicin 0.9; viability z-score without drug -0.17; inactive.
Or8g54 (GeneID 258823) scored combined z-score class no change with or without drug; viability z-score with doxorubicin -1.46; viability z-score without drug -1.35; inactive.
For Tlr5 (GeneID 53791), the entry reads combined z-score class no change with or without drug; viability z-score with doxorubicin -0.45; viability z-score without drug -0.17; inactive.
Pdk4 (GeneID 27273) scored combined z-score class no change with or without drug; viability z-score with doxorubicin -0.67; viability z-score without drug 0.34; inactive.
For Tssc4 (GeneID 56844), the values are combined z-score class no change with or without drug; viability z-score with doxorubicin 1.8; viability z-score without drug 1.85; inactive.
Silencing of Tmem11 (GeneID 216821) resulted in: combined z-score class no change with or without drug; viability z-score with doxorubicin 1.24; viability z-score without drug 1.52; inactive.
After knock-down of Peg3 (GeneID 18616), the record shows combined z-score class no change with or without drug; viability z-score with doxorubicin -1.35; viability z-score without drug -1.18; inactive.
Poglut1 (GeneID 224143) gave combined z-score class no change with or without drug; viability z-score with doxorubicin -0.67; viability z-score without drug -1.18; inactive.
Inpp5b (GeneID 16330) scored combined z-score class no change with or without drug; viability z-score with doxorubicin 1.01; viability z-score without drug 0; inactive.
For Bpifb9a (GeneID 71425), the values are combined z-score class no change with or without drug; viability z-score with doxorubicin -0.56; viability z-score without drug -0.17; inactive.
Against Clns1a (GeneID 12729), the entry reads combined z-score class no change with or without drug; viability z-score with doxorubicin -1.57; viability z-score without drug -1.69; inactive.
Depletion of Or5b99 (GeneID 258700) resulted in: combined z-score class no change with or without drug; viability z-score with doxorubicin -1.12; viability z-score without drug -0.84; inactive.
